Assay results: patent publication US6849652B1, “1,2,4-triazole derivative, method for preparing the same, and pharmaceutical composition containing the same” (CJ Corp., priority 2002, dated 2005)
Some entries share one result that the patent states for a list of compounds.

Biological target: T1, COX-2 (Mus musculus, UniProt Q05769)
T1 construct: host or cells: RAW 264.7 cells, aspirin-pretreated, then induced with interferon and LPS
T1 sequence (Q05769 18-604): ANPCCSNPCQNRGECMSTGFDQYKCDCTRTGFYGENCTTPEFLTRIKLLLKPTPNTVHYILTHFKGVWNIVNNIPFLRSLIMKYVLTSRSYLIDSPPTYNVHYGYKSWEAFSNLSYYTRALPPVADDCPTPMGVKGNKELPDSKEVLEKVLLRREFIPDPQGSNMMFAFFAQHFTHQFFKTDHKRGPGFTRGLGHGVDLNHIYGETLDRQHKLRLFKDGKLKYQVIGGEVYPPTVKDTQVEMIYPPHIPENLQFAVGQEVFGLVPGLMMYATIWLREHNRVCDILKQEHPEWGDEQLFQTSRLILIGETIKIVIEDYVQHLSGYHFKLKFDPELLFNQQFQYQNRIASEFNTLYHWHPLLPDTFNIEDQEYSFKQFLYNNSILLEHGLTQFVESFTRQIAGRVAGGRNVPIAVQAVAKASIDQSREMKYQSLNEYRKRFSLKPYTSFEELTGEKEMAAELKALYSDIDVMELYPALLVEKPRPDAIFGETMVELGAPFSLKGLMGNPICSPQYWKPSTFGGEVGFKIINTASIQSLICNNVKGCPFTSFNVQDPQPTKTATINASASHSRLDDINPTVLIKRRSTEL
Assay: Assay for the COX-2 inhibitory activity using RAW 264.7 cell line (PGE2 inhibition)
Assay type: cell-based
Conditions: for inhibition (%) ratios of COX-2 to COX-1 compared with the reference Valdecoxib: COX-2 at 10 nM (RAW 264.7) vs COX-1 at 1 μM (U-937); for COX-2 inhibitory activities compared with the reference: RAW 264.7 cells, 10 nM, vs Valdecoxib
Description: Each well was treated with 250 μM of aspirin and incubated at 37° C. for 2 hours. After the culture media were replaced with new culture media, the new culture media were treated with a test compound (10 nM) and incubated for 30 minutes. Then, each well was treated with interferon (100 units/ml) and lipopolysaccharide (LPS, 100 ng/ml) and incubated for 18 hours. The culture media were transferred to other test tubes. The concentration of PGE2 was quantified by means of the EIA kit (Cayman Chemicals).
The percentages of the COX inhibition were calculated according to the following equation:
% Inhibition=(concentration of PGE2 in test compound-untreated sample —concentration of PGE2 in test compound-treated sample)/(concentration of PGE2 in test compound-untreated sample)×100

COX-2 inhibitory activities compared with the reference | SMILES | inhibition (%) ratios of COX-2 to COX-1 compared with the reference Valdecoxib
significantly higher than the reference | CS(=O)(=O)c1ccc(-n2nc(C(F)(F)F)nc2-c2ccccc2)cc1F [Example 22, 1-(3-fluoro-4-methanesulfonylphenyl)-5-phenyl-3-trifluoromethyl-1H-1,2,4-triazole] | significantly higher than that in the reference
significantly higher than the reference | COc1ccc(-c2nc(C(F)(F)F)nn2-c2ccc(S(C)(=O)=O)c(F)c2)cc1 [Example 23, 1-(3-fluoro-4-methanesulfonylphenyl)-5-(4-methoxyphenyl)-3-trifluoromethyl-1H-1,2,4-triazole] | significantly higher than that in the reference
significantly higher than the reference | CS(=O)(=O)c1ccc(-n2nc(C(F)(F)F)nc2-c2ccc(F)cc2)cc1F [Example 24, 1-(3-fluoro-4-methanesulfonylphenyl)-5-(4-fluorophenyl)-3-trifluoro methyl-1H-1,2,4-triazole] | significantly higher than that in the reference
significantly higher than the reference | CS(=O)(=O)c1ccc(-n2nc(C(F)(F)F)nc2-c2ccc(Br)cc2)cc1F [Example 25, 1-(3-fluoro-4-methanesulfonylphenyl)-5-(4-bromophenyl)-3-trifluoromethyl-1H-1,2,4-triazole] | significantly higher than that in the reference
significantly higher than the reference | CS(=O)(=O)c1ccc(-n2nc(C(F)(F)F)nc2-c2ccc(Cl)cc2)cc1F [Example 26] | significantly higher than that in the reference
significantly higher than the reference | Cc1ccc(-c2nc(C(F)(F)F)nn2-c2ccc(S(C)(=O)=O)c(F)c2)cc1 [Example 27, 1-(3-fluoro-4-methanesulfonylphenyl)-5-(4-methylphenyl)-3-trifluoromethyl-1H-1,2,4-triazole] | significantly higher than that in the reference
significantly higher than the reference | CCOc1ccc(-c2nc(C(F)(F)F)nn2-c2ccc(S(C)(=O)=O)c(F)c2)cc1 [Example 28, 1-(3-fluoro-4-methanesulfonylphenyl)-5-(4-ethoxyphenyl)-3-trifluoromethyl-1H-1,2,4-triazole] | significantly higher than that in the reference

Continued, compound first:

SMILES | COX-2 inhibitory activities compared with the reference | inhibition (%) ratios of COX-2 to COX-1 compared with the reference Valdecoxib
CS(=O)(=O)c1ccc(-n2nc(C(F)(F)F)nc2-c2cccc(Cl)c2)cc1F [Example 29, 1-(3-fluoro-4-methanesulfonylphenyl)-5-(3-chlorophenyl)-3-trifluoro methyl-1H-1,2,4-triazole] | significantly higher than the reference | significantly higher than that in the reference
CS(=O)(=O)c1ccc(-n2nc(C(F)(F)F)nc2-c2cccc(F)c2)cc1F [Example 30, 1-(3-fluoro-4-methanesulfonylphenyl)-5-(3-fluorophenyl)-3-trifluoro methyl-1H-1,2,4-triazole] | significantly higher than the reference | significantly higher than that in the reference
COc1ccc(-c2nc(C(F)(F)F)nn2-c2ccc(S(C)(=O)=O)c(F)c2)cc1F [Example 31, 1-(3-fluoro-4-methanesulfonylphenyl)-5-(3-fluoro-4-methoxyphenyl)-3-trifluoromethyl-1H-1,2,4-triazole] | significantly higher than the reference | significantly higher than that in the reference
Cc1cccc(-c2nc(C(F)(F)F)nn2-c2ccc(S(C)(=O)=O)c(F)c2)c1 [Example 32, 1-(3-fluoro-4-methanesulfonylphenyl)-5-(3-methylphenyl)-3-trifluoromethyl-1H-1,2,4-triazole] | significantly higher than the reference | significantly higher than that in the reference
CS(=O)(=O)c1ccc(-n2nc(C(F)(F)F)nc2-c2ccc3ccccc3c2)cc1F [Example 33, 1-(3-fluoro-4-methanesulfonylphenyl)-5-(naphthalene-2-yl)-3-trifluoromethyl-1H-1,2,4-triazole] | significantly higher than the reference | significantly higher than that in the reference
CS(=O)(=O)c1ccc(-n2nc(C(F)(F)F)nc2-c2ccc3c(c2)OCO3)cc1F [Example 34, 5-([1,3]benzodioxole-5-yl)-1-(3-fluoro-4-methanesulfonylphenyl)-3-trifluoromethyl-1H-1,2,4-triazole] | significantly higher than the reference | significantly higher than that in the reference
CS(=O)(=O)c1ccc(-n2nc(C(F)(F)F)nc2-c2ccc(F)c(F)c2)cc1F [Example 35, 1-(3-fluoro-4-methanesulfonylphenyl)-5-(3,4-difluorophenyl)-3-trifluoromethyl-1H-1,2,4-triazole] | significantly higher than the reference | significantly higher than that in the reference
